Construct, isoform or probe ends are uncertain for at least one entry. The comparison behind a weaker result is the experiment's own reference, which may not be listed here. At least one verdict rests on a figure or table, not on a statement of the authors.
Test system: NELF complex WT
Test: EMSA (NELF release from PEC)
Conditions: effect depends on RNA length; 20 mM Na-HEPES pH 7.4, 100 mM NaCl, 25 mM KCl, 3 mM MgCl2, 2 mM DTT; assembly 30 °C, eRNA incubation 15-20 min at room …; 3.5% native PAGE 0.5x TBE at 4 °C; recombinant protein; protein details: His-tag (Ni-NTA purified)

GAGAGAGAGAGAGAGAGAGAGAGAGAGAGAGAGAGAGAGA [poly(GA), 40 nt]
binding result: binds more weakly

Reference: publication PMC9068813
